# Measured values taken from PubChem BioAssay (NCATS).
# Values joined by “and” are separate entries in the source; they are usually repeats but may differ in a detail not shown here. Identical values can stand only once. The inconclusive results got no clear call from the source; some entries with a clear call stand among them for comparison. For part of these data: A potency beside an inconclusive call is a rough fit, not a confirmed value. Active and inactive are the calls of the source. The call rests on the fitted dose curve; in most records, active means well fitted curve in the direction sought with a large enough effect; inconclusive means small, poorly fitted or top-dose-only effect, or another doubt; inactive means no such curve, though single readings can be large; an effect the other way counts as inactive or inconclusive.
# Experiments:
# [1] = Cell Proliferation Assay against the TMD8 Cell Line (Caspase readout at 16 hrs) (AID 651712); details: TMD8 lymphoma cells, caspase activation luminescence; caspase activation: at 46.1 µM (top of the series); further: potency means the concentration at half of the fitted maximal effect;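 on caspase activation: 0% = DMSO and 100% = 9.2 µM bortezomib caspase activation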
# Summary of the method: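 16 h, 37 °C, TMD8 (500 cells/well), RPMI/5% FBS no phenol red; Caspase-Glo 3/7, 15 min RT, luminescence; %act: DMSO 0, bortezomib 9.2 uM final 100.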
# [2] = Identifying Small Molecule Inhibitors of Pancreatic Cancer Stem Cells (A2780, Spheroid) (AID 1259357); details: Potency: A2780 spheroid viability; viability (percent of control): at 46.1 µM (top of the series);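 further: compound exposure lasted 48 h before the ATP luminescence read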; further: potency means the concentration at half of the fitted maximal effect
# Summary of the method: (§1)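 Luminescent ATP readout (CellTiter-Glo) quantifies surviving cells after a 48 h drug incubation. Normalization uses DMSO wells as no inhibition and media-only wells as full inhibition; bortezomib served as positive control.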
# [3] = Identifying Small Molecule Inhibitors of Pancreatic Cancer Stem Cells (Panc1, Spheroid) (AID 1259359); details: Panc1 spheroid cancer stem cell viability; viability, % of control: at 46.1 µM (top of the series) unless noted;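 further: compound exposure lasted 48 h before reading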; further: potency means the concentration at half of the fitted maximal effect
# Summary of the method: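 Adherent (2D) versus sphere (3D) formats; spheres generated 14 d in SCM beforehand. Compound transferred by pin tool after 4 h, 48 h incubation, CellTiter-Glo endpoint.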
# [4] = Identifying Small Molecule Inhibitors of Pancreatic Cancer Stem Cells (SN12C, Spheroid) (AID 1259360); details: Potency: SN12C spheroid viability; further: potency means the concentration at half of the fitted maximal effect
# Summary of the method: as §1
# [5] = Identifying Small Molecule Inhibitors of Pancreatic Cancer Stem Cells (A278, Adherent) (AID 1259361); further: nearly all actives have a fitted effect of over 35% in size
# Summary of the method: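 After a 4 h attachment period, compounds were pinned into wells and cultures held 48 h under standard incubator conditions. Viability was then measured as CellTiter-Glo luminescence following 10 min at room temperature.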
# [6] = Identifying Small Molecule Inhibitors of Pancreatic Cancer Stem Cells (Panc1, Adherent) (AID 1259362); details: Potency: viability unless noted; viability, % of control: at 46.1 µM (top of the series) unless noted; further: potency means the concentration at half of the fitted maximal effect
# Summary of the method: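 Cytotoxicity read by CellTiter-Glo luminescence after 48 h compound exposure at 37C; percent activity scaled between DMSO-treated cells and cell-free wells. Spheroid formats used cells pre-formed 14 days in stem cell media on hydrogel.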
# [7] = qHTS of pediatric cancer cell lines to identify multiple opportunities for drug repurposing: Primary screen for BT-12 cells (AID 1347101); further: potency means the concentration at half of the fitted maximal effect; nearly all actives have a fitted effect of over 25% in size
# Summary of the method: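 Cells (500-1,000/well) rested 5 h, then received compounds for 48 h; metabolically active cells were measured by CellTiter-Glo luminescence. Final concentrations spanned up to 46 µM (MIPE, 11-point) or 0.59 nM-46 µM (NPC, 8-point) in primary screens, 11-point in follow-ups.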
# [8] = qHTS of pediatric cancer cell lines to identify multiple opportunities for drug repurposing: Primary screen for Rh18 cells (AID 1347102); further: potency means the concentration at half of the fitted maximal effect; nearly all actives have a fitted effect of over 65% in size
# Summary of the method: (§2)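 Cells (500-1,000/well) in growth media were settled 5 h at 37 degrees C, then given compounds for 48 h. Viability was read as CellTiter-Glo luminescence. Primary runs used MIPE at 11 points (0.78 nM-46 µM) and NPC at 8 points (0.59 nM-46 µM); follow-ups used 11 points.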
# [9] = qHTS of pediatric cancer cell lines to identify multiple opportunities for drug repurposing: Primary screen for Rh30 cells (AID 1347107); further: potency means the concentration at half of the fitted maximal effect; nearly all actives have a fitted effect of over 75% in size
# Summary of the method: as §2
# [10] = qHTS of pediatric cancer cell lines to identify multiple opportunities for drug repurposing: Primary screen for Rh41 cells (AID 1347108); further: potency means the concentration at half of the fitted maximal effect; nearly all actives have a fitted effect of over 70% in size
# Summary of the method: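 Phenotypic viability qHTS, 48 h compound exposure, CellTiter-Glo luminescence read-out; multi-concentration dosing so that potency and efficacy derive directly from the primary screen's curves.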
# [11] = Quantitative High-Throughput drug screen in 47 multiple myeloma cell lines against the NCATS MIPE library collection: JIM1_ECACC cell viability assay (AID 1918964; further: potency means the concentration at half of the fitted maximal effect)
# Summary of the method: (§3)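 Relative luminescence from CellTiter-Glo served as the viability signal, referenced to DMSO-treated (100%) and cell-free medium (0%) controls. Treatment lasted 48 hours at 37C with 500 cells per well.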
# [12] = Quantitative High-Throughput drug screen in 47 multiple myeloma cell lines against the NCATS MIPE library collection: KMS20_JCRB cell viability assay (AID 1918973); details: CellTiter-Glo ATP, 48 h; viability (% of DMSO): at 45.8 µM (top of the series); further: potency means the concentration at half of the fitted maximal effect; nearly all actives have a fitted effect of over 45% in size
# Summary of the method: as §3
# [13] = Quantitative High-Throughput drug screen in 47 multiple myeloma cell lines against the NCATS MIPE library collection: MOLP8_DSMZ cell viability assay (AID 1918977); details: MOLP8 myeloma viability, CellTiter-Glo ATP luminescence, 48 h; viability (% of control): at 45.8 µM (top of the series); further: potency means the concentration at half of the fitted maximal effect; nearly all actives have a fitted effect of over 45% in size
# Summary of the method: (§4)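 qHTS format: cells plated (500/well), pin-dosed with MIPE 4.0 compounds, kept 48 h at 37 °C. Readout was CellTiter-Glo luminescence, median RLU.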
# [14] = Quantitative High-Throughput drug screen in 47 multiple myeloma cell lines against the NCATS MIPE library collection: LP1_DSMZ cell viability assay (AID 1918982); further: potency means the concentration at half of the fitted maximal effect; nearly all actives have a fitted effect of over 35% in size
# Summary of the method: as §4
# CRL-7250 = normal cell line; test: Cytotoxic Profiling of Annotated Libraries Using Quantitative High-Throughput Screening (AID 1296008); details: Five cell lines viability, CellTiter-Glo ATP luminescence, 48-72 h; max response: hits give low values; further: nearly all actives have a fitted effect of over 60% in size; further: potency means the concentration at half of the fitted maximal effect; on max response: on the % scale 0 is the no-effect control and ±100 the full control effect
# Summary of the method: (§5)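 Compounds were pin-transferred onto cells and incubated 48 or 72 hr at 37 degree Celsius, 95% humidity. CellTiter-Glo was added, plates sat 10 min at room temperature, then ATP-coupled luminescence was imaged as the viability read-out.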
# [15] = Cell Proliferation Assay against the TMD8 Cell Line (Caspase readout at 8 hrs) (AID 651713); details: TMD8 lymphoma cells, caspase activation luminescence; caspase activation: at 46.1 µM (top of the series); further: potency means the concentration at half of the fitted maximal effect;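 on caspase activation: 0% = DMSO and 100% = 9.2 µM bortezomib caspase signal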
# Summary of the method: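 Apoptosis read-out: Caspase-Glo luminescence after 8 h compound exposure of TMD8 lymphoma cells at 37C, 5% CO2. Signals were normalized as percent activity between DMSO and bortezomib (9.2 uM final) controls.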
# HEK293 = test: Cytotoxic Profiling of Annotated Libraries Using Quantitative High-Throughput Screening (AID 1296008); details: Five cell lines viability, CellTiter-Glo ATP luminescence, 48-72 h; max response: hits give low values; further: nearly all actives have a fitted effect of over 60% in size; further: potency means the concentration at half of the fitted maximal effect; on max response: on the % scale 0 is the no-effect control and ±100 the full control effect
# Summary of the method: as §5
# [16] = P-glycoprotein substrates identified in KB-8-5-11 adenocarcinoma cell line, qHTS therapeutic library screen (AID 1346987); further: potency means the concentration at half of the fitted maximal effect; nearly all actives have a fitted effect of over 65% in size
# Summary of the method: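 Compounds are pinned in dose-response onto KB-8-5-11 cells (500 cells/well, colchicine-free medium) and left 72 h at 37 degree C. CellTiter-Glo luminescence then yields AC50 values.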
# [17] = Quantitative High-Throughput drug screen in 47 multiple myeloma cell lines against the NCATS MIPE library collection: KMS21BM_JCRB cell viability assay (AID 1918974); details: ATP luminescence, 48 h; viability: at 45.8 µM (top of the series); further: potency means the concentration at half of the fitted maximal effect
# Summary of the method: as §3
# [18] = Quantitative High-Throughput drug screen in 47 multiple myeloma cell lines against the NCATS MIPE library collection: L363_DSMZ cell viability assay (AID 1918984); details: L363 myeloma viability, CellTiter-Glo ATP luminescence, 48 h; viability (% of control): at 45.8 µM (top of the series); further: nearly all actives have a fitted effect of over 40% in size; further: potency means the concentration at half of the fitted maximal effect
# Summary of the method: as §4
compound,measurement,setting,value
O=C(OCC#CCSc1nnc(-c2ccc3ccccc3c2)o1)c1cc2ccccc2s1,Potency,[1],inactive
same,viability (percent of control),[2],inconclusive: 113%
same,Potency,[3],"inconclusive: 2.96 µM [cytotoxic, full curve, poor fit]"
same,Potency,[4],inactive
same,IC50 (viability decrease),[5],"inconclusive: 14.8 µM [cytotoxic, partial curve, poor fit]"
same,Potency,[6],"inconclusive: 2.35 µM [cytotoxic, full curve, poor fit]"
C[C@@H]1CN(CC(=O)Nc2ccc3c(c2)Cc2cccc(-c4cc(=O)cc(N5CCOCC5)o4)c2S3)C[C@H](C)O1,Potency,[1],"inconclusive: 26.4 µM [activator, single point]"
same,Potency,[2],"inconclusive: 37.2 µM [cytotoxic, single point]"
same,Potency,[3],"inconclusive: 18.7 µM [cytotoxic, partial curve, poor fit]"
same,Potency,[4],"inconclusive: 37.2 µM [cytotoxic, single point]"
same,IC50 (viability decrease),[5],"inconclusive: 26.4 µM [cytotoxic, single point]"
same,Potency,[6],"inconclusive: 0.935 µM [rising, full curve, poor fit]"
same,Potency,[7],"inconclusive: 24.3 µM [cytotoxic, partial curve]"
same,Potency,[8],active: 18.7 µM
same,Potency,[9],"inconclusive: 20.9 µM [cytotoxic, single point]"
same,Potency,[10],"inconclusive: 18.7 µM [cytotoxic, single point]"
same,Potency,[11],"inconclusive: 5.26 µM [cytotoxic, partial curve, poor fit]"
same,Potency,[12],"inconclusive: 0.296 µM [cytotoxic, full curve, poor fit]"
same,Potency,[13],"inconclusive: 3.32 µM [cytotoxic, full curve, poor fit]"
same,Potency,[14],"inconclusive: 14.8 µM [cytotoxic, partial curve]"
same,max response,CRL-7250,inactive: -2.3%
CCOc1cc2ncc(C#N)c(Nc3ccc(OCc4ccccn4)c(Cl)c3)c2cc1NC(=O)/C=C/CN(C)C,Potency,[1],"inconclusive: 13.2 µM [activator, partial curve, poor fit]"
same,Potency,[15],active: 23.5 µM
same,Potency,[2],"inconclusive: 0.132 µM [cytotoxic, full curve, poor fit]"
same,Potency,[3],"inconclusive: 37.2 µM [cytotoxic, single point]"
same,Potency,[4],active: 4.69 µM
same,IC50 (viability decrease),[5],active: 1.18 µM
same,Potency,[6],active: 2.64 µM
same,Potency,CRL-7250,"inconclusive: 0.356 µM [inhibitor, full curve, poor fit]"
same,Potency,HEK293,active: 1.42 µM
Cn1c(=O)n(-c2ccc(C(C)(C)C#N)cc2)c2c3cc(-c4cnc5ccccc5c4)ccc3ncc21,Potency,[1],active: 20.9 µM
same,Potency,[15],"inconclusive: 20.9 µM [activator, single point]"
same,Potency,[2],"inconclusive: 0.235 µM [cytotoxic, full curve, poor fit]"
same,Potency,[3],"inconclusive: 26.4 µM [cytotoxic, single point]"
same,Potency,[4],active: 0.148 µM
same,IC50 (viability decrease),[5],"inconclusive: 0.0526 µM [cytotoxic, full curve]"
same,Potency,[16],active: 366 nM and active: 18.7 nM
same,Potency,[7],"inconclusive: 0.0544 µM [cytotoxic, full curve]"
same,Potency,[9],"inconclusive: 1.87 µM [cytotoxic, partial curve]"
same,Potency,[10],active: 0.132 µM
same,Potency,[12],active: 0.372 µM
same,viability,[17],inconclusive: 6.88% [cytotoxic]
same,Potency,[13],active: 0.0166 µM
same,Potency,[14],"inconclusive: 0.0118 µM [cytotoxic, full curve]"
same,Potency,[18],"inconclusive: 0.0418 µM [cytotoxic, full curve]"
Cc1nnc(C(C)C)n1C1CC2CCC(C1)N2CC[C@H](NC(=O)C1CCC(F)(F)CC1)c1ccccc1 (stereo not given in full),Potency,[1],inactive
same,viability (percent of control),[2],inconclusive: 109%
same,Potency,[4],inactive
same,IC50 (viability decrease),[5],"inconclusive: 37.2 µM [cytotoxic, single point]"
c1cc(-c2cnn3cc(-c4ccc(OCCN5CCCCC5)cc4)cnc23)ccn1,Potency,[2],"inconclusive: 10.5 µM [rising, single point]"
same,Potency,[3],"inconclusive: 0.0418 µM [cytotoxic, full curve, poor fit]"
same,IC50 (viability decrease),[5],active: 26.4 µM
same,Potency,[6],"inconclusive: 16.6 µM [cytotoxic, partial curve]"
same,Potency,[16],active: 2.35 µM and active: 10.3 µM
same,Potency,[7],active: 24.3 µM
same,Potency,[8],active: 20.9 µM
same,Potency,[9],active: 18.7 µM
same,Potency,[10],active: 9.35 µM
same,Potency,[11],"inconclusive: 0.0418 µM [cytotoxic, full curve, poor fit]"
same,Potency,[17],"inconclusive: 0.0209 µM [cytotoxic, full curve, poor fit]"
same,Potency,[18],inactive
same,Potency,CRL-7250,active: 6.62 µM
same,Potency,HEK293,active: 3.32 µM
CCN(CCCO)CCCOc1ccc2c(Nc3cc(CC(=O)Nc4cccc(F)c4)[nH]n3)ncnc2c1,Potency,[15],inactive
same,viability (percent of control),[2],inconclusive: 91.6%
same,Potency,[4],inactive
same,IC50 (viability decrease),[5],"inconclusive: 33.2 µM [cytotoxic, partial curve, poor fit]"
same,Potency,[6],"inconclusive: 2.64 µM [rising, full curve, poor fit]"
Cc1cc(-c2nnc3n2CCCCC3)c(C)n1-c1ccc(F)cc1,Potency,[1],"inconclusive: 29.6 µM [activator, single point]"
same,Potency,[15],inactive
same,viability (percent of control),[2],inconclusive: 70.3%
same,"viability, % of control",[3],inconclusive: 166%
same,Potency,[4],inactive
same,IC50 (viability decrease),[5],"inconclusive: 11.8 µM [cytotoxic, full curve]"
same,Potency,[6],"inconclusive: 0.296 µM [cytotoxic, full curve, poor fit]"
